From US20100330697A1, “COMPLEXES OF TRPC DOMAINS AND SESTD1 DOMAINS AND METHODS AND USES INVOLVING THE SAME” (SANOFI-AVENTIS, priority 2007, published 2010)

Molecular target: T1, mTRPC4α (615-974)/leucine zipper/pGBKT7 (murine, UniProt P04386 1-147; Q9QUQ5 615-974)
T1 construct: Yeast two-hybrid bait in yeast AH109; the order here follows the printed construct name behind the GAL4 DNA-BD; The zipper is said to direct tetramerization; also called mTRPC4a C-terminus
Test: directed yeast two-hybrid, growth on selective media

binding result: no binding
B1: SESTD1-Sec 14 (aa 1-192), GAL4 activation domain fusion (other, human, UniProt Q86VW0 1-192, looked up, not shown: large carriers)
chain: MEASVILPILKKKLAFLSGGKDRRSGLILTIPLCLEQTNMDELSVTLDYLLSIPSEKCKARGFTVIVDGRKSQWNVVKTVVVMLQNVVPAEVSLVCVVKPDEFWDKKVTHFCFWKEKDRLGFEVILVSANKLTRYIEPCQLTEDFGGSLTYDHMDWLNKRLVFEKFTKESTSLLDELALINNGSDKGNQQEK
notes: range 1-192; Directed yeast two-hybrid prey
